The values that follow come from paper PMC5996148.

Common to all, as to test: protein microarray (ProtoArray v5.0), streptavidin-Alexa Fluor 647
Settings in all cases: 3'-biotin; 20 mM Tris (pH 7.5), 5 mM MgCl2, 100 mM KCl, 0.1% Tween-20, A/T-rich and random oligonucleotide blockers; temperature not stated; high values mean tight binding

Experiment [1] relates to cAMP-dependent protein kinase type I-beta regulatory subunit (human).
For experiment [2], the system named is cAMP-dependent protein kinase type II-beta regulatory subunit (human).
The subject of experiment [3] is cDNA FLJ30744 fis, clone FEBRA2000378. (human).
Experiment [4] deals with cDNA clone IMAGE:2906290, complete cds (human).
Experiment [5] relates to cDNA clone IMAGE:3949276, partial cds (human).
The subject of experiment [6] is cDNA clone IMAGE:4292790 (human).
In experiment [7] the test system is cDNA clone IMAGE:4396549 (human).
Experiment [8] concerns cDNA clone IMAGE:4903661, complete cds (human).
In experiment [9] the test system is cDNA clone IMAGE:5263629 (human).
Experiment [10] concerns cDNA clone MGC:12166 IMAGE:3828551 (human).
Experiment [11] deals with cDNA clone MGC:12418 IMAGE:3934658, complete cds (human).
Experiment [12] concerns cDNA clone MGC:15478 IMAGE:2967661, complete cds (human).
Experiment [13] deals with cDNA clone MGC:16743 IMAGE:4130428 (human).
Experiment [14] has as its system cDNA clone MGC:17055 IMAGE:4338834 (human).
Experiment [15] has as its system cDNA clone MGC:23693 IMAGE:4767650 (human).
Experiment [16] relates to cDNA clone MGC:25008 IMAGE:4453355, complete cds (human).
Experiment [17] deals with cDNA clone MGC:31936 IMAGE:4765518, complete cds (human).
Experiment [18] relates to cDNA clone MGC:32654 IMAGE:4701898, complete cds (human).
For experiment [19], the system named is cDNA clone MGC:34832 IMAGE:5203730 (human).
Experiment [20] has as its system cDNA clone MGC:40177 IMAGE:5167345, complete cds (human).

Some of the results follow.

Consider “GGTGACAGGGGTATGGGGAGGGG [G4-2 biotinylated (Ct1)]”, for which the binding signal in experiment [1] is -0.393 z-score; in experiment [2], -0.39 z-score; in [3] it was -0.371 z-score; in experiment [4], -0.393 z-score; in experiment [5] it was -0.359 z-score; in [6], -0.4 z-score. The binding signal in [7] was -0.395 z-score; in experiment [8], 3.12 z-score; in experiment [9] it was -0.398 z-score; in experiment [10], -0.361 z-score; in experiment [11], -0.387 z-score; in [12], -0.388 z-score. For the same sequence, the binding signal in experiment [13] is -0.382 z-score; in experiment [14], -0.385 z-score; in experiment [15] it was -0.385 z-score; in [16], -0.385 z-score; in [17] it was -0.387 z-score; in experiment [18], -0.4 z-score. Also, the binding signal was -0.38 z-score in experiment [19] and -0.377 z-score in experiment [20].
